Our source for the binding values is publication PMC10516938, “Conformational dynamics of cohesin/Scc2 loading complex are regulated by Smc3 acetylation and ATP binding” (Nature Communications, 2023).

Protein sequences, listed by entry. Tags and fused reporters are not part of them. Lines headed by an entry give the natural chain unless they say otherwise; changes in a name come on top.
UniProt Q04002: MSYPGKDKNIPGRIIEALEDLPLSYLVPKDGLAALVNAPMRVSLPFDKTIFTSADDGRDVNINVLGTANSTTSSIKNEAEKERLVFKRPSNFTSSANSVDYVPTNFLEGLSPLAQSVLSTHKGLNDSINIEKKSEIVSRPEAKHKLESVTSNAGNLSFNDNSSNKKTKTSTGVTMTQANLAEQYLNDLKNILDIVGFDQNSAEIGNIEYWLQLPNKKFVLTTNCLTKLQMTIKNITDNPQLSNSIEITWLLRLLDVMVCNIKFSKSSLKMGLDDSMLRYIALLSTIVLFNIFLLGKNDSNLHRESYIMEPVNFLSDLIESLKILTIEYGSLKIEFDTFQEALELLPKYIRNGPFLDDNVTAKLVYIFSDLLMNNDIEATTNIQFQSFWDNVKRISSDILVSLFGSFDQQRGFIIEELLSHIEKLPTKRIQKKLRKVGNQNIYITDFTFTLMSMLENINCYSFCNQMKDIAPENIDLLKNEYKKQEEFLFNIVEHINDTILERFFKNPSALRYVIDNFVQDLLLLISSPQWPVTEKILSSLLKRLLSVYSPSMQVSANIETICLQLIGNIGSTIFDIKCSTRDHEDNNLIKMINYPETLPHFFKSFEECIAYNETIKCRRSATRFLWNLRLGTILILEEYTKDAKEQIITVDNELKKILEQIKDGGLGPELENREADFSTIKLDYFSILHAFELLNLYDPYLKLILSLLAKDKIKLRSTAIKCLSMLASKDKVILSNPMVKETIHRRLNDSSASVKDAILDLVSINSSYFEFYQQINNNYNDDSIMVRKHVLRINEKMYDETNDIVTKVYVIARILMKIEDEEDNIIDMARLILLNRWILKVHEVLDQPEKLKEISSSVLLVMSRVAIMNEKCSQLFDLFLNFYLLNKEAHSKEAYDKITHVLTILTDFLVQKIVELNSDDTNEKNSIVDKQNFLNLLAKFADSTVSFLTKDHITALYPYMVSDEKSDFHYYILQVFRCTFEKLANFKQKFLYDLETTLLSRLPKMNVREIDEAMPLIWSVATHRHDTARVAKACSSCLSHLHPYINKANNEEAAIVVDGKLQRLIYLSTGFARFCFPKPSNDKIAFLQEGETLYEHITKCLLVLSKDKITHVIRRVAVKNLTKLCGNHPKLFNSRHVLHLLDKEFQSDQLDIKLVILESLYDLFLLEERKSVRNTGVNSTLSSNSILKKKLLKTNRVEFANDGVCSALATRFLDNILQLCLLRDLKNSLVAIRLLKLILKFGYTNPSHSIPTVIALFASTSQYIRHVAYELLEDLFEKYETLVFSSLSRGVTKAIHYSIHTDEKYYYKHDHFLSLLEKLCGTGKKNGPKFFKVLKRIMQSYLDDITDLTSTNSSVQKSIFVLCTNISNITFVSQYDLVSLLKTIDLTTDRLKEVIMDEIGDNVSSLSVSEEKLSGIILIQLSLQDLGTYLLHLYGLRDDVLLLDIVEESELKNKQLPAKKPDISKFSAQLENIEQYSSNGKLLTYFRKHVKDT

These are yes or no findings as the source states them, for the method shown. Binding seen in cells or lysates may run through a third protein. A result given as binding can be weak or reduced; the word gives no strength.

This experiment deals with T1, Smc3 M74C (S. cerevisiae) (UniProt P47037).
T1 sequence: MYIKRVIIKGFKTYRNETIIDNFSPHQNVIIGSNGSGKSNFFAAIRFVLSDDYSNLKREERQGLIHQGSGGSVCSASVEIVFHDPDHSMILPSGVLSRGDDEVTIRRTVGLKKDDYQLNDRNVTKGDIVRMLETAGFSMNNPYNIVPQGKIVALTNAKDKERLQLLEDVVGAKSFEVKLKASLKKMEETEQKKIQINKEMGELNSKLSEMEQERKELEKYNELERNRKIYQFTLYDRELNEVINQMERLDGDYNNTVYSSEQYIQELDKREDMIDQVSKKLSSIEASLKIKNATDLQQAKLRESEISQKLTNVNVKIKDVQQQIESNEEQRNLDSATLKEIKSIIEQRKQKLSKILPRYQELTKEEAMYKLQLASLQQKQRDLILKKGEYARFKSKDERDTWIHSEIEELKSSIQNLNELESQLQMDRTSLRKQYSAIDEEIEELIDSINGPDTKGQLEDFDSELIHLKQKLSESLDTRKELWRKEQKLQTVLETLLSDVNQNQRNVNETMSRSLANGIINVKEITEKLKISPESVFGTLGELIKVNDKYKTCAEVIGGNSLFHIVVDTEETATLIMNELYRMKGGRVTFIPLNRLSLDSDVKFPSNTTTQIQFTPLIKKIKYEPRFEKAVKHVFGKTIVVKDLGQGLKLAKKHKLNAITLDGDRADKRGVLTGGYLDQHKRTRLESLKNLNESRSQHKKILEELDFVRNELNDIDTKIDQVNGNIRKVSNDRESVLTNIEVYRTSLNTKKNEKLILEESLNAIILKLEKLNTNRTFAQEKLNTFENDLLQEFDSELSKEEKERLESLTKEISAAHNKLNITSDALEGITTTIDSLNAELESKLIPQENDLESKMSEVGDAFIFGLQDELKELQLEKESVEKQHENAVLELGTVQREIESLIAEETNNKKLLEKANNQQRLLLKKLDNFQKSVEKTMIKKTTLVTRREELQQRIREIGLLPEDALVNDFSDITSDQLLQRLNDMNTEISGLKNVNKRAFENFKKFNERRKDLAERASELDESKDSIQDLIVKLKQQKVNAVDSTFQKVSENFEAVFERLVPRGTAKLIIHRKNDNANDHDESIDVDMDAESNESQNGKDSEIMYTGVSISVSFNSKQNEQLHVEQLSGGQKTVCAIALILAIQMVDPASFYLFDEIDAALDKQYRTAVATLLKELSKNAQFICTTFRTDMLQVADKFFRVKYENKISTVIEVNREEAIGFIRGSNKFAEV
As to the kind of experiment: cross-linking; in vivo BMOE cross-link of cysteine pairs in exponentially grown yeast cells (on ice, 6 min); Scc1-PK immunoprecipitated, western blot.

With Scc2 E821C (from UniProt Q04002), the binding result is listed as “binds”.
